Taken from: PubChem BioAssay AID1259254 (NCATS, 2017)
Assay: 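Gene knock-downs that lead to re-replication, shown by excess G2 DNA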 (primary screen). Cells: human HCT116 colorectal cancer cells. Reagents: single siRNA against human genes. Time to read-out: 3 days. Read-out: 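Imaged Hoechst DNA stain sorts each cell into a cycle phase by DNA amount; per plate, G2 fraction set to 0% for non-targeting and 100% for GMNN siRNA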. Direction: G2 robust z-score and G2 cells, % of GMNN control: higher = more G2 cells, more excess DNA replication; raw share of cells in G2: higher = larger share of cells with G2 DNA content. Rule for the call: 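An siRNA counts as active if its G2 robust z-score lies at least 5 MADs above the screen median; here such calls match roughly 38% of GMNN control or more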.
The deposit covers about 59,000 reagents; shown is an unselected part. About 1,550 of all reagents (2.6%) were called active. 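G2 share is only a proxy for re-replication; each gene was hit by three separate siRNAs, and active genes were retested.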 Raw values are not corrected between plates. The numbers tell different reagents against one gene apart. Not given: the amount of reagent.

The first 3 records as a preview:
no.	Target gene	siRNA no.	G2 robust z-score	G2 cells, % of GMNN control	raw share of cells in G2 (%)	outcome
1	NAT10 (N-acetyltransferase 10)	1	4.38	33.8	21.2	inactive
2	NAT10 (N-acetyltransferase 10)	2	-0.294	0.9	4.76	inactive
3	NAT10 (N-acetyltransferase 10)	3	2.81	22.7	13.8	inactive

Results, repeating the preview:
no.	Target gene	siRNA no.	G2 robust z-score	G2 cells, % of GMNN control	raw share of cells in G2 (%)	outcome
1	NAT10 (N-acetyltransferase 10)	1	4.38	33.8	21.2	inactive
2	NAT10 (N-acetyltransferase 10)	2	-0.294	0.9	4.76	inactive
3	NAT10 (N-acetyltransferase 10)	3	2.81	22.7	13.8	inactive
4	LIMS1 (LIM zinc finger domain containing 1)	1	-0.814	-2.76	2.28	inactive
5	LIMS1 (LIM zinc finger domain containing 1)	2	3.04	24.4	15.1	inactive
6	LIMS1 (LIM zinc finger domain containing 1)	3	-0.339	0.581	5.58	inactive
7	CXCL8 (C-X-C motif chemokine ligand 8)	1	-1.32	-6.32	1.88	inactive
8	CXCL8 (C-X-C motif chemokine ligand 8)	2	4.58	35.2	17.8	inactive
9	CXCL8 (C-X-C motif chemokine ligand 8)	3	0.763	8.33	8.86	inactive
10	AKR1C4 (aldo-keto reductase family 1 member C4)	1	4.1	31.8	16.3	inactive
11	AKR1C4 (aldo-keto reductase family 1 member C4)	2	-0.0681	2.49	5.9	inactive
12	AKR1C4 (aldo-keto reductase family 1 member C4)	3	4.36	33.6	15.7	inactive
13	YTHDC2 (YTH N6-methyladenosine RNA binding protein C2)	1	0.545	6.8	7.54	inactive
14	YTHDC2 (YTH N6-methyladenosine RNA binding protein C2)	2	-0.379	0.299	4.74	inactive
15	YTHDC2 (YTH N6-methyladenosine RNA binding protein C2)	3	-0.364	0.407	2.8	inactive
16	RPS27 (ribosomal protein S27)	1	2.89	23.3	14.9	inactive
17	RPS27 (ribosomal protein S27)	2	2.35	19.5	11.9	inactive
18	RPS27 (ribosomal protein S27)	3	3.47	27.4	13.2	inactive
19	LINC01874 (long independently transcribed non-coding RNA 1874)	1	0.0319	3.19	4.75	inactive
20	LINC01874 (long independently transcribed non-coding RNA 1874)	2	-0.958	-3.77	1.54	inactive
21	LINC01874 (long independently transcribed non-coding RNA 1874)	3	-0.379	0.299	3.71	inactive
22	XCR1 (X-C motif chemokine receptor 1)	1	-0.25	1.21	6.27	inactive
23	XCR1 (X-C motif chemokine receptor 1)	2	1	10	8.02	inactive
24	XCR1 (X-C motif chemokine receptor 1)	3	-1.14	-5.05	1.72	inactive
25	C1QTNF12 (C1q and TNF related 12)	1	0.47	6.27	5.92	inactive
26	C1QTNF12 (C1q and TNF related 12)	2	2.02	17.2	10.9	inactive
27	C1QTNF12 (C1q and TNF related 12)	3	1.5	13.5	10.4	inactive
28	KLHDC4 (kelch domain containing 4)	1	-0.825	-2.84	2.59	inactive
29	KLHDC4 (kelch domain containing 4)	2	-0.274	1.04	4.71	inactive
30	KLHDC4 (kelch domain containing 4)	3	3.01	24.1	11.2	inactive
31	AGXT2 (alanine--glyoxylate aminotransferase 2)	1	1.3	12.1	8.64	inactive
32	AGXT2 (alanine--glyoxylate aminotransferase 2)	2	-0.918	-3.49	2.96	inactive
33	AGXT2 (alanine--glyoxylate aminotransferase 2)	3	-1.13	-4.97	3.59	inactive
34	MTARC2 (mitochondrial amidoxime reducing component 2)	1	-0.0043	2.94	5.65	inactive
35	MTARC2 (mitochondrial amidoxime reducing component 2)	2	0.238	4.65	6.06	inactive
36	MTARC2 (mitochondrial amidoxime reducing component 2)	3	0.915	9.41	6.14	inactive
37	IMMT (inner membrane mitochondrial protein)	1	-0.251	1.2	5.46	inactive
38	IMMT (inner membrane mitochondrial protein)	2	0.651	7.55	7.25	inactive
39	IMMT (inner membrane mitochondrial protein)	3	-0.347	0.523	3.37	inactive
40	APOOL (apolipoprotein O like)	1	0.429	5.99	4.75	inactive
41	APOOL (apolipoprotein O like)	2	0.362	5.51	6.25	inactive
42	APOOL (apolipoprotein O like)	3	0.901	9.3	6.05	inactive
43	MAT1A (methionine adenosyltransferase 1A)	1	-0.369	0.374	3.32	inactive
44	MAT1A (methionine adenosyltransferase 1A)	2	1.32	12.3	10.1	inactive
45	MAT1A (methionine adenosyltransferase 1A)	3	4.97	38	20.5	inactive
46	KRTAP26-1 (keratin associated protein 26-1)	1	-1.35	-6.5	1.55	inactive
47	KRTAP26-1 (keratin associated protein 26-1)	2	0.536	6.74	6.34	inactive
48	KRTAP26-1 (keratin associated protein 26-1)	3	6.53	48.9	25.6	active
